Assay results as given in paper PMC4412883 (FEBS Open Bio, 2015).

Experiments:
[1] = target: GlcPSe (Staphylococcus epidermidis, UniProt A0A0H2VG78, R367A); test: cell-based
[2] = target: GlcPSe (Staphylococcus epidermidis, UniProt A0A0H2VG78, N136A); test: biochemical
[3] = target: GlcPSe (Staphylococcus epidermidis, UniProt A0A0H2VG78); test: biochemical

With `Cc1cc2c(s1)Nc1ccccc1N=C2N1CCN(C)CC1` [olanzapine] the IC50 [1] was 800 ± 100 µM, the IC50 [2] was 1500 ± 200 µM and the IC50 [3] was 900 ± 100 µM.
